Test results from patent publication US7053194.
These are yes or no findings as the source states them, for the method shown. In cells and extracts the contact can be indirect. Some results given as binding are weak or reduced against the parent protein; the word gives no strength.

Assays:
[1] = biological target: T1, mSin3a (endogenous, murine Va15 cells) (UniProt Q60520); test: co-immunoprecipitation from Va15 cells at 39 degrees (mutant conformation), p53 western
T1 sequence (looked up): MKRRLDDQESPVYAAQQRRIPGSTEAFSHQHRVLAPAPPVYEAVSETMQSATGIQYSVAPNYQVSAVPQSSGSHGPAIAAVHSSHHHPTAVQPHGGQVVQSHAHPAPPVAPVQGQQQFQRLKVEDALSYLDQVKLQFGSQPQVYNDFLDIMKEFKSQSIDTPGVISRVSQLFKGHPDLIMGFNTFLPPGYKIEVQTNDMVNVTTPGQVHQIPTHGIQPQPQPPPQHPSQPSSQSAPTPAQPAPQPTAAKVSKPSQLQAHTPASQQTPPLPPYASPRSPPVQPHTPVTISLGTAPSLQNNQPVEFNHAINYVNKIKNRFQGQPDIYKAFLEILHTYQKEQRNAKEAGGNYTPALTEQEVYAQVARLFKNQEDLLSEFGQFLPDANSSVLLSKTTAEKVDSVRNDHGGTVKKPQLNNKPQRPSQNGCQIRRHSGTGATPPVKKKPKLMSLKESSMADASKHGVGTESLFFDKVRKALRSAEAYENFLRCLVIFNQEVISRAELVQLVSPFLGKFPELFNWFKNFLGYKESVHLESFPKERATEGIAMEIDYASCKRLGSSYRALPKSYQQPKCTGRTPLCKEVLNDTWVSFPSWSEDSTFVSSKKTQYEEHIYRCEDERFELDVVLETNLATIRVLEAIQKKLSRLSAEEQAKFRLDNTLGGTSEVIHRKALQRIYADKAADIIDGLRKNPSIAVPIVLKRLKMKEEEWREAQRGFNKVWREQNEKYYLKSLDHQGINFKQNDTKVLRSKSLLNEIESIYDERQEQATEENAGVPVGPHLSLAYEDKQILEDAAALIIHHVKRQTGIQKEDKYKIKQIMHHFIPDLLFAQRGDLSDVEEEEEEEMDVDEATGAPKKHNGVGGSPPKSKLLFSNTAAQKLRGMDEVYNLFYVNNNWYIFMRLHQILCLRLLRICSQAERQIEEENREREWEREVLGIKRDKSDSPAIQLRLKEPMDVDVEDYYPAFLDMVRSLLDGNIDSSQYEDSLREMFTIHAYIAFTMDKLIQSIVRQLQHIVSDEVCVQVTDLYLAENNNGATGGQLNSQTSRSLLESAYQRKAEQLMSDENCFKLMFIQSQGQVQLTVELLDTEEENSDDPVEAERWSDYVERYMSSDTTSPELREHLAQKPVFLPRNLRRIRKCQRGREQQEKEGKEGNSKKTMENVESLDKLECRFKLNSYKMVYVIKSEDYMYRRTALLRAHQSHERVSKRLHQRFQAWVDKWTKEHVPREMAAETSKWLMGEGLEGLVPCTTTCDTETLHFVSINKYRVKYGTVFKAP

[2] = biological target: T1, mSin3a (endogenous, murine Va15 cells); test: co-immunoprecipitation from Va15 cells at 32 degrees (wild type conformation) with Sin3a antisera, p53 western

binding [1]: binds | binding [2]: binds
Substance: temperature-sensitive p53 (Valine 135 allele) of murine Va15 cells (from UniProt P02340 1-390)
